± gives the standard deviation of the averaged measurements. This is a selection; strong and weak results do not stand in their true shares. Most entries show no effect beyond the scatter of the controls.
Compound: Nc1ncnc2c1ncn2[C@@H]1O[C@H](COP(=O)(O)OP(=O)(O)NP(=O)(O)O)[C@@H](O)[C@H]1O [adenylyl imidodiphosphate]
Experiment: NP40-soluble protein abundance relative to vehicle (solubility fold change) (ratio); higher = more soluble protein in presence of AMP-PNP
Outline: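 Jurkat crude lysate prepared with a Dounce homogeniser was treated at eight concentrations spanning 0.1 to 10 mM, 10 min at room temperature then 3 min at 37 °C. Solubilisation with 0.8% NP40 and benzonase and ultracentrifugation preceded TMT labelling of the supernatant for LC-MS/MS. Fold change against the detergent-processed vehicle was determined per replicate from vsn-normalised intensities, across three independent experiments.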

Sequences of proteins named here, by UniProt entry; tags and fusion partners are left off. A change or cut given only in a name is not applied to a line headed by its entry.
UniProt P61981: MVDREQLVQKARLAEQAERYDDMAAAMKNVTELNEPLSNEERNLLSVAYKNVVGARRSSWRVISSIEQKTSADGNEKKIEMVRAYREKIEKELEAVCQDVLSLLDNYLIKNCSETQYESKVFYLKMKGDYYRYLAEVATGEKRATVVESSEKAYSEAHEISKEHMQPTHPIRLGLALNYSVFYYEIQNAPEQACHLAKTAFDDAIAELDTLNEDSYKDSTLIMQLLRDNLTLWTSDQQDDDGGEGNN
UniProt P61011: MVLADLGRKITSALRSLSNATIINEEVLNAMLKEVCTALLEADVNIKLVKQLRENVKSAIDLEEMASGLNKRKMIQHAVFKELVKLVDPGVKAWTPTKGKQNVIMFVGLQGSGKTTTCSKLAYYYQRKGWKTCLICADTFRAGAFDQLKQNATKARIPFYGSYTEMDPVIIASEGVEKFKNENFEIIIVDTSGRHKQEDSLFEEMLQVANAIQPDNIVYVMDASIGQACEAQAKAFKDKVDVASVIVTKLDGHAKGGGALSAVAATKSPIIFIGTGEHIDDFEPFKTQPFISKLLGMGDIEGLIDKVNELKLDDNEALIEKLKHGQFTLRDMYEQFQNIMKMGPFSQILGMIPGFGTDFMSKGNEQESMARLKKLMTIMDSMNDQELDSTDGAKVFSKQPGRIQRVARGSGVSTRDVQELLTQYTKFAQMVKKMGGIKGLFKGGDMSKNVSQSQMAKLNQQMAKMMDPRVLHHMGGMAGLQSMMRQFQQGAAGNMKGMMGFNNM
UniProt P56381: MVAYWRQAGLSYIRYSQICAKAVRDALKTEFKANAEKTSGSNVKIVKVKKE
UniProt Q00765: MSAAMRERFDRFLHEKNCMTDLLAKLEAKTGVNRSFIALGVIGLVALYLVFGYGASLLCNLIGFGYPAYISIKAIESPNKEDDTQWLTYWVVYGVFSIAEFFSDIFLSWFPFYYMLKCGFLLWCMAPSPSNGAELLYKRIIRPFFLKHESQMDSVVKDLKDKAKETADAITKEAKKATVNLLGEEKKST
UniProt P56282: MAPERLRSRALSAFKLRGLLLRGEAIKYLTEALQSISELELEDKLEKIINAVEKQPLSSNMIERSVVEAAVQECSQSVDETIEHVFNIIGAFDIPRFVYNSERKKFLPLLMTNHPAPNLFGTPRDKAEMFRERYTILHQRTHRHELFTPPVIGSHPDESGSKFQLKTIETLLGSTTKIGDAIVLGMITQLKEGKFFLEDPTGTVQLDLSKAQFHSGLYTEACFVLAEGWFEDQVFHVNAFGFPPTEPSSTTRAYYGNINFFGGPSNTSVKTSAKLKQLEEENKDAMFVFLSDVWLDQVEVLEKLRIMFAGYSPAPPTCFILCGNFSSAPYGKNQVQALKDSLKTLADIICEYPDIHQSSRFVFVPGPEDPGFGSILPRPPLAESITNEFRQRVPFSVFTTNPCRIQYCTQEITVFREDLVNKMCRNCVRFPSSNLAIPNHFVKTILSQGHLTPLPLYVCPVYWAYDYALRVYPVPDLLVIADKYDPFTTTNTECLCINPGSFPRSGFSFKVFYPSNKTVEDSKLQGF
UniProt Q07617: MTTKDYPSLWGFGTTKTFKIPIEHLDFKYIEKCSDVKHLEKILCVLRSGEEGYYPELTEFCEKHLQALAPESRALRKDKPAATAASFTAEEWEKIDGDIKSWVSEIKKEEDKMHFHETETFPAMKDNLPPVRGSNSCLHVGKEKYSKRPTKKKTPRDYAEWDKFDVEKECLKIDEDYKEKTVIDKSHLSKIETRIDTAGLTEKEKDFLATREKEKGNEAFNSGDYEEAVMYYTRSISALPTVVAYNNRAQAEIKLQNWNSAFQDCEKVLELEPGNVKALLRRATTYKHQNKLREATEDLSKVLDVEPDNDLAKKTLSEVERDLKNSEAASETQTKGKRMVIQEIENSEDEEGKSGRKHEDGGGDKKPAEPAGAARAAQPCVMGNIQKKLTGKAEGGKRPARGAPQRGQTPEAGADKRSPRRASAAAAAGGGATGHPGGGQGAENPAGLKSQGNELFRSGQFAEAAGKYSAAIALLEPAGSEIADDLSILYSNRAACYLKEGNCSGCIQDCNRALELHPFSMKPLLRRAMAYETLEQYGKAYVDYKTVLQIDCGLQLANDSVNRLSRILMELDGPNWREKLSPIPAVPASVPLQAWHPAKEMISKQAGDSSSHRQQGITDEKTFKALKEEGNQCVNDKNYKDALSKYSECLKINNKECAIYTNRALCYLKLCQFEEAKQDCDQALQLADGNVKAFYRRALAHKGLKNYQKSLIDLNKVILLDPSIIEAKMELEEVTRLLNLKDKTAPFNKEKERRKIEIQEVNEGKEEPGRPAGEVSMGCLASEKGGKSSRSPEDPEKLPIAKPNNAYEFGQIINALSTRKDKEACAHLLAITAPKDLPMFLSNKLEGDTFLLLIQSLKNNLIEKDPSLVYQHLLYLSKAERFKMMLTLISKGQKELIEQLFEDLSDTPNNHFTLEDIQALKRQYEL
UniProt Q01518, whole entry: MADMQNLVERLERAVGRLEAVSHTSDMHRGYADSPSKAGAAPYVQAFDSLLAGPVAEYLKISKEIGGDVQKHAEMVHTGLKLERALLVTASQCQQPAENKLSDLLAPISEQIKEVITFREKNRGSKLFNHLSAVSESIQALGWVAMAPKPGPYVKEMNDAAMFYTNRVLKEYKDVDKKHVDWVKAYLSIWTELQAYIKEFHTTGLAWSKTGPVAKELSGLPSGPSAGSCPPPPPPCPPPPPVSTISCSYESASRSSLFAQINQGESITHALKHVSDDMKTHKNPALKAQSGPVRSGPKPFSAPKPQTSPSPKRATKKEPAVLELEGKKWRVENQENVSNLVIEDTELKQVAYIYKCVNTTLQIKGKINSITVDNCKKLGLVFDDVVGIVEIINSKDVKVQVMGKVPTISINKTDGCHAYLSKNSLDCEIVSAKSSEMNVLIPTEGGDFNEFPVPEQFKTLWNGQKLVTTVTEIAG
UniProt Q01196, whole entry: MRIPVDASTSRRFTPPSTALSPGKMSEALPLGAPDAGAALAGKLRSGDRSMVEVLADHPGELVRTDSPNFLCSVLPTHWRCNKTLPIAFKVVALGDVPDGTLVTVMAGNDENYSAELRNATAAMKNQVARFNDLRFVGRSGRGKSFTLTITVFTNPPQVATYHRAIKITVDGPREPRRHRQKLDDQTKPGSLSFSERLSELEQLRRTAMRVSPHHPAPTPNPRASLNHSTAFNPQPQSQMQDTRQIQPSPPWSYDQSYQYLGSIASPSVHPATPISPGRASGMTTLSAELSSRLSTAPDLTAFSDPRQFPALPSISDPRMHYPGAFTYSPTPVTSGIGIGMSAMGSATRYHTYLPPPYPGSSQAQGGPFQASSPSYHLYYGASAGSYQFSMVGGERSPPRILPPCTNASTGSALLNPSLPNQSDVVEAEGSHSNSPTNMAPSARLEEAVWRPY
UniProt Q00796: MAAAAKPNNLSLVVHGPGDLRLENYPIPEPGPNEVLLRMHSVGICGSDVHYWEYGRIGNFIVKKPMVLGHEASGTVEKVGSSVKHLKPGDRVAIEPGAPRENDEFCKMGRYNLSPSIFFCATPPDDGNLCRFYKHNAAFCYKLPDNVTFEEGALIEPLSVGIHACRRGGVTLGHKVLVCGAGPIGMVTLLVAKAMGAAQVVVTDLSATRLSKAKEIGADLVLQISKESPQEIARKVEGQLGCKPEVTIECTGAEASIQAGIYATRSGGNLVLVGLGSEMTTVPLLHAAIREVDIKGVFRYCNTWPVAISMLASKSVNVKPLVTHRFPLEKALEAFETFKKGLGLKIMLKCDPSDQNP
UniProt P63279, whole entry: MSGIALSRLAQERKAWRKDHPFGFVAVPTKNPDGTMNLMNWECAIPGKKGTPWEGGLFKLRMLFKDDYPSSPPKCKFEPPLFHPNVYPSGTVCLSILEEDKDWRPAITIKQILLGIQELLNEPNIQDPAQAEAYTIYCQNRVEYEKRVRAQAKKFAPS
UniProt Q96PN7: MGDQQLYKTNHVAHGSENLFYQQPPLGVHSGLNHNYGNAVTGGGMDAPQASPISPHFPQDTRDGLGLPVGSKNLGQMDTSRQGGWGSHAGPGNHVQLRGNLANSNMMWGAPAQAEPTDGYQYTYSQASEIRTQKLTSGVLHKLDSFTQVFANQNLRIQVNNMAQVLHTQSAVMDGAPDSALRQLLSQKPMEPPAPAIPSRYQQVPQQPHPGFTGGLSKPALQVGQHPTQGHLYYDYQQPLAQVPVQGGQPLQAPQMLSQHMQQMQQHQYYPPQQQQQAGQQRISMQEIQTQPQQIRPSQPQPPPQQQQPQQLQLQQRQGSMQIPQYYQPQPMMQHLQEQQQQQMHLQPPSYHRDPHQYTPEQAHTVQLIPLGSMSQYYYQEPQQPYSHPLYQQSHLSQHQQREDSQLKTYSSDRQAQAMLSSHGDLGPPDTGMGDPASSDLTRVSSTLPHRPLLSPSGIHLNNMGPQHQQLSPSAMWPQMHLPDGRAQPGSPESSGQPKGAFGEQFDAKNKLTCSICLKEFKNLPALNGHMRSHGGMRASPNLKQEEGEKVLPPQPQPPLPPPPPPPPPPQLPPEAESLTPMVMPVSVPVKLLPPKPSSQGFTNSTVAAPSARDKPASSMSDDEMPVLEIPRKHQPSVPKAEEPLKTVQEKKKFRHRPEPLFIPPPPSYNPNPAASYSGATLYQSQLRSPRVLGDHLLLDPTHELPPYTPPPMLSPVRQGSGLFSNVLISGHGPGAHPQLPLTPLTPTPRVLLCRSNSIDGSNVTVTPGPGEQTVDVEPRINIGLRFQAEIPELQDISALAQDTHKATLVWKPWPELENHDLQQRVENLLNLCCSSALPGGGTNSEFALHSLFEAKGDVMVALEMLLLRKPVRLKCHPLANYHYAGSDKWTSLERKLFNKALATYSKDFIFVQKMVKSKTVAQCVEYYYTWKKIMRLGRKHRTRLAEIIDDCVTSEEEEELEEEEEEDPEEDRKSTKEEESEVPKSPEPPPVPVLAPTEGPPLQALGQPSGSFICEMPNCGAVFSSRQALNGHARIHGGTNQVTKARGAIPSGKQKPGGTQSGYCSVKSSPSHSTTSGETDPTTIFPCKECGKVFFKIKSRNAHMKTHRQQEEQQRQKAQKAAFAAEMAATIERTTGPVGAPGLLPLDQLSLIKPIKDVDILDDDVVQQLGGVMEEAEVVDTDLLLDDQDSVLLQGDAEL
UniProt P56385: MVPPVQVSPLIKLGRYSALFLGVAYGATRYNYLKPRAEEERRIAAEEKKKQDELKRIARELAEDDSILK
UniProt P63010: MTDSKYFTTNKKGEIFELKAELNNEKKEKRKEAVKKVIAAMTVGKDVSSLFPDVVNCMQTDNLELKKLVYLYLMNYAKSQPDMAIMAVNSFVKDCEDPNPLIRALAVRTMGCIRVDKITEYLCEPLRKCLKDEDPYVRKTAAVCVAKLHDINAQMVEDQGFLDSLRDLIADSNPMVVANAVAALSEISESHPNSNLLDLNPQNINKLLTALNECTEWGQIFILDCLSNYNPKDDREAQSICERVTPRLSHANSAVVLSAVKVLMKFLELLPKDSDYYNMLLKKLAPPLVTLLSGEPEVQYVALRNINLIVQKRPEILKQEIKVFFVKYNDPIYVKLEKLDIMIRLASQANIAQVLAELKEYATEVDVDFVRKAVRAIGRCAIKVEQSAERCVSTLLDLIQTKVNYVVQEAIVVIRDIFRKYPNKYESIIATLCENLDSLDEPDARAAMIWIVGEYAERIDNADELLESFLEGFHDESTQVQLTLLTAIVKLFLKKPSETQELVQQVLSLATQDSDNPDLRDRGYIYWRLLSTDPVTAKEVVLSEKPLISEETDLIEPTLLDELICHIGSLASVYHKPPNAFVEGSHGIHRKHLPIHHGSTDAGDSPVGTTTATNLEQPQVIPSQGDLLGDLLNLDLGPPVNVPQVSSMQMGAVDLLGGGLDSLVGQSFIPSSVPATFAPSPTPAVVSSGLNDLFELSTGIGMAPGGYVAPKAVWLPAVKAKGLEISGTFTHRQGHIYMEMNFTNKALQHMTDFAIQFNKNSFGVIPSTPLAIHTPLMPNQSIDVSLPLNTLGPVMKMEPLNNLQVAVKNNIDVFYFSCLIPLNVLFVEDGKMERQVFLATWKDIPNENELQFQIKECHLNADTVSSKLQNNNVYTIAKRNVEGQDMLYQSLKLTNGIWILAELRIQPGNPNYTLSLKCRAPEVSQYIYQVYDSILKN
UniProt P78356: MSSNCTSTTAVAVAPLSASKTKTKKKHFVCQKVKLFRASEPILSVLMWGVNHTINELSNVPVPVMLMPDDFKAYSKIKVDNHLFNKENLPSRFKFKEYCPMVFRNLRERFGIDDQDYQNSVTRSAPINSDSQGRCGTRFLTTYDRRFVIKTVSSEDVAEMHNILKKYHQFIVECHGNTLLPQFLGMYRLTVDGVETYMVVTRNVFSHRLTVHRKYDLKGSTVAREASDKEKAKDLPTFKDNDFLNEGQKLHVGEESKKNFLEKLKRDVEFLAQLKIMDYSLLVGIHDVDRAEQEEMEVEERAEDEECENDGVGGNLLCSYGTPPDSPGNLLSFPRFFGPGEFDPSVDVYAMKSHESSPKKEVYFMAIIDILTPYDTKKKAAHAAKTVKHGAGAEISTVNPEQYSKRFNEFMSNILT
UniProt P63167, whole entry: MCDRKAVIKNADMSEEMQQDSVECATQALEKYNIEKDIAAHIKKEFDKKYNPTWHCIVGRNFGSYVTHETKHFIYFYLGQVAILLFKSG

Target	NP40-soluble protein abundance (concentration: 0.1mM)	NP40-soluble protein abundance (concentration: 0.5mM)
ARG2 (UniProt P78540)	0.9956 ± 0.0086	1.01 ± 0.015
UniProt P60891	0.896 ± 0.039	0.851 ± 0.034
UniProt P78332 and related entries	1.02 ± 0.037	1.03 ± 0.036
RNASEL (UniProt Q05823)	1.03 ± 0.034	1.05 ± 0.038
UniProt P67870 and related entries	0.979 ± 0.029	0.997 ± 0.042
UniProt P63146	0.994 ± 0.029	1.028 ± 0.0023
UniProt P84095	0.993 ± 0.059	0.979 ± 0.099
UniProt P63220 and related entries	1.03 ± 0.04	1 ± 0.073
UniProt P62834	1.01 ± 0.02	0.985 ± 0.034
HDAC4 (UniProt P56524)	0.983 ± 0.026	0.981 ± 0.051
UniProt P60604 and related entries	1.03 ± 0.055	1.04 ± 0.047
UniProt P61254	1.07 ± 0.017	1.07 ± 0.057
RPL7A (UniProt P62424)	1.03 ± 0.039	0.991 ± 0.036
UniProt Q04724 and related entries	0.987 ± 0.016	0.97 ± 0.039
UniProt P55771	0.979 ± 0.016	0.9598 ± 0.0095
ALDH6A1 (UniProt Q02252)	0.9951 ± 0.0046	0.985 ± 0.028
UniProt P61981	0.953 ± 0.041	1.02 ± 0.09
FKBP4 (UniProt Q02790)	0.99 ± 0.025	0.992 ± 0.02
UniProt P61764 and related entries	1 ± 0.023	0.981 ± 0.033
UniProt P82912 and related entries	1.01 ± 0.057	1.07 ± 0.072
GRB2 (UniProt P62993)	0.99 ± 0.053	0.994 ± 0.05
SRP54 (UniProt P61011)	1.02 ± 0.032	1 ± 0.024
TBPL1 (UniProt P62380)	1.01 ± 0.017	0.991 ± 0.053
UniProt P56381	1 ± 0.035	1.05 ± 0.16

Target	NP40-soluble protein abundance (concentration: 0.1mM)	NP40-soluble protein abundance (concentration: 0.5mM)
UniProt P62277	1.04 ± 0.054	1 ± 0.068
UniProt P62877	0.984 ± 0.034	1.03 ± 0.033
UniProt P62314	1.023 ± 0.0087	1.03 ± 0.062
UniProt Q01105-2	0.88 ± 0.15	0.941 ± 0.065
NAA20 (UniProt P61599)	1.01 ± 0.058	1.03 ± 0.064
UniProt P68543 and related entries	0.977 ± 0.026	0.959 ± 0.073
UniProt P62854	1.03 ± 0.043	1.03 ± 0.038
UniProt Q07817 and related entries	0.9988 ± 0.0018	0.977 ± 0.018
UniProt P61978-2|P61978-3	0.996 ± 0.052	1.03 ± 0.045
UniProt P61289 and related entries	0.979 ± 0.052	0.944 ± 0.091
PURA (UniProt Q00577)	0.99 ± 0.062	1.01 ± 0.096
UniProt Q05519 and related entries	1.15 ± 0.015	1.1 ± 0.038
CCT2 (UniProt P78371)	1.01 ± 0.011	0.992 ± 0.014
UniProt P62258	0.985 ± 0.033	1.02 ± 0.078
UniProt Q00536 and related entries	0.926 ± 0.04	0.95 ± 0.036
UniProt P62253	0.99 ± 0.024	0.99 ± 0.056
CDK5 (UniProt Q00535)	0.976 ± 0.033	0.975 ± 0.036
MARS (UniProt P56192)	1.01 ± 0.032	1 ± 0.053
P86790 and related entries (UniProt P86791+P86790)	1.02 ± 0.018	0.973 ± 0.043
PAFAH1B2 (UniProt P68402)	0.971 ± 0.013	1 ± 0.032
REEP5 (UniProt Q00765)	0.962 ± 0.019	1.03 ± 0.087
DHODH (UniProt Q02127)	1.004 ± 0.008	0.969 ± 0.047
UniProt P61088	1.02 ± 0.049	1.039 ± 0.0086
PPAT (UniProt Q06203)	1.02 ± 0.074	0.972 ± 0.14

Target	NP40-soluble protein abundance (concentration: 0.1mM)	NP40-soluble protein abundance (concentration: 0.5mM)
UniProt Q04727 and related entries	0.972 ± 0.016	0.988 ± 0.071
UniProt P62263	1.01 ± 0.087	1.02 ± 0.051
UniProt P56282 and related entries	0.988 ± 0.013	0.986 ± 0.025
UniProt P62273	1.06 ± 0.059	1.032 ± 0.0065
RING1 (UniProt Q06587)	1.01 ± 0.065	1.04 ± 0.057
FKBP3 (UniProt Q00688)	0.964 ± 0.021	1.09 ± 0.1
UniProt Q05932 and related entries	1.017 ± 0.0086	1.01 ± 0.025
XPC (UniProt Q01831)	0.986 ± 0.02	0.998 ± 0.034
MRPS10 (UniProt P82664)	1.041 ± 0.0092	1.06 ± 0.0024
S100A10 (UniProt P60903)	1.03 ± 0.06	1.03 ± 0.14
GSTO1 (UniProt P78417)	1.01 ± 0.063	1.01 ± 0.094
SPAG1 (UniProt Q07617)	0.991 ± 0.03	0.984 ± 0.043
UniProt P62316	1 ± 0.038	1.07 ± 0.097
UniProt Q01518 and related entries	1.02 ± 0.027	1.02 ± 0.06
PLCB3 (UniProt Q01970)	0.988 ± 0.034	0.986 ± 0.025
RPS3A (UniProt P61247)	1.02 ± 0.012	0.9987 ± 0.009
UniProt Q01196-11|Q01196-8|Q01196 and related entries	0.993 ± 0.037	1.01 ± 0.038
PPP2CA (UniProt P67775)	0.99 ± 0.017	1.03 ± 0.012
UniProt Q00978 and related entries	1.02 ± 0.018	0.995 ± 0.027
UniProt P62913 and related entries	1.03 ± 0.044	1.04 ± 0.051
SLC7A5 (UniProt Q01650)	0.98 ± 0.079	0.953 ± 0.046
UniProt P62820	0.962 ± 0.038	0.989 ± 0.033
UniProt P84085	1.022 ± 0.0065	0.989 ± 0.055
SORD (UniProt Q00796)	0.953 ± 0.049	1.01 ± 0.058

Target	NP40-soluble protein abundance (concentration: 0.1mM)	NP40-soluble protein abundance (concentration: 0.5mM)
UniProt P63272	0.9677 ± 0.0092	0.997 ± 0.013
RPL6 (UniProt Q02878)	1.03 ± 0.028	1.01 ± 0.081
LMO4 (UniProt P61968)	0.999 ± 0.046	1 ± 0.035
UniProt P61927	0.994 ± 0.028	1.03 ± 0.029
UniProt Q02078-2|Q02078-4|Q02078-6|Q02078-5	1.02 ± 0.016	0.9826 ± 0.0064
UniProt P59190	1.011 ± 0.0096	1.01 ± 0.017
GABPA (UniProt Q06546)	0.958 ± 0.033	1.01 ± 0.035
UniProt P62899	1.04 ± 0.015	1.01 ± 0.03
OGDH (UniProt Q02218)	1.019 ± 0.01	1.01 ± 0.059
UniProt P62917	1.06 ± 0.043	1.06 ± 0.011
UniProt Q02224 and related entries	0.958 ± 0.0099	0.998 ± 0.05
UniProt P63279	1.03 ± 0.12	1.08 ± 0.1
EIF4G2 (UniProt P78344)	1.01 ± 0.018	1.02 ± 0.015
XIAP (UniProt P98170)	1.01 ± 0.038	0.992 ± 0.02
SSBP1 (UniProt Q04837)	0.995 ± 0.027	1.02 ± 0.062
P62158 (UniProt P0DP23)	1.05 ± 0.048	1.21 ± 0.14
UniProt P60953 and related entries	0.987 ± 0.042	1.03 ± 0.041
YWHAH (UniProt Q04917)	0.986 ± 0.022	1.03 ± 0.064
UniProt P55809 and related entries	1.01 ± 0.033	1.02 ± 0.054
UniProt P83916	0.994 ± 0.063	1.03 ± 0.022
UniProt P62072	0.997 ± 0.034	0.977 ± 0.039
Q05GC8 and related entries (UniProt Q96PN7+Q05GC8)	0.9754 ± 0.0037	1.013 ± 0.0064
UniProt Q01085-2	0.998 ± 0.061	0.97 ± 0.03
UniProt Q00722 and related entries	0.998 ± 0.035	0.989 ± 0.036

A stretch from further up, for reference:
Target	NP40-soluble protein abundance (concentration: 0.1mM)	NP40-soluble protein abundance (concentration: 0.5mM)
UniProt P62820	0.962 ± 0.038	0.989 ± 0.033
UniProt P84085	1.022 ± 0.0065	0.989 ± 0.055
SORD (UniProt Q00796)	0.953 ± 0.049	1.01 ± 0.058
UniProt P63272	0.9677 ± 0.0092	0.997 ± 0.013
RPL6 (UniProt Q02878)	1.03 ± 0.028	1.01 ± 0.081
LMO4 (UniProt P61968)	0.999 ± 0.046	1 ± 0.035
UniProt P61927	0.994 ± 0.028	1.03 ± 0.029
UniProt Q02078-2|Q02078-4|Q02078-6|Q02078-5	1.02 ± 0.016	0.9826 ± 0.0064
UniProt P59190	1.011 ± 0.0096	1.01 ± 0.017
GABPA (UniProt Q06546)	0.958 ± 0.033	1.01 ± 0.035
UniProt P62899	1.04 ± 0.015	1.01 ± 0.03
OGDH (UniProt Q02218)	1.019 ± 0.01	1.01 ± 0.059
UniProt P62917	1.06 ± 0.043	1.06 ± 0.011
UniProt Q02224 and related entries	0.958 ± 0.0099	0.998 ± 0.05
UniProt P63279	1.03 ± 0.12	1.08 ± 0.1
EIF4G2 (UniProt P78344)	1.01 ± 0.018	1.02 ± 0.015
XIAP (UniProt P98170)	1.01 ± 0.038	0.992 ± 0.02
SSBP1 (UniProt Q04837)	0.995 ± 0.027	1.02 ± 0.062
P62158 (UniProt P0DP23)	1.05 ± 0.048	1.21 ± 0.14
UniProt P60953 and related entries	0.987 ± 0.042	1.03 ± 0.041
YWHAH (UniProt Q04917)	0.986 ± 0.022	1.03 ± 0.064
UniProt P55809 and related entries	1.01 ± 0.033	1.02 ± 0.054
UniProt P83916	0.994 ± 0.063	1.03 ± 0.022
UniProt P62072	0.997 ± 0.034	0.977 ± 0.039
Q05GC8 and related entries (UniProt Q96PN7+Q05GC8)	0.9754 ± 0.0037	1.013 ± 0.0064
UniProt Q01085-2	0.998 ± 0.061	0.97 ± 0.03
UniProt Q00722 and related entries	0.998 ± 0.035	0.989 ± 0.036

(next part)

Target	NP40-soluble protein abundance (concentration: 0.1mM)	NP40-soluble protein abundance (concentration: 0.5mM)
KHDRBS1 (UniProt Q07666)	1.03 ± 0.038	1.04 ± 0.068
UniProt Q01804 and related entries	0.989 ± 0.049	0.99 ± 0.025
UniProt P56385	0.846 ± 0.072	0.989 ± 0.059
UniProt P61221	0.974 ± 0.022	0.927 ± 0.052
KIF23 (UniProt Q02241)	1.02 ± 0.045	1.01 ± 0.011
UniProt P61956	1 ± 0.012	1.05 ± 0.013
UniProt P84103 and related entries	1.01 ± 0.02	1.03 ± 0.054
UniProt P62081	1.03 ± 0.021	1.01 ± 0.041
NUP107 (UniProt P57740)	0.989 ± 0.029	0.986 ± 0.032
ARF3 (UniProt P61204)	1.04 ± 0.054	1.03 ± 0.1
UniProt P63010 and related entries	0.9991 ± 0.0077	1.01 ± 0.034
UniProt Q00613 and related entries	1.01 ± 0.045	1.02 ± 0.028
MRPS15 (UniProt P82914)	1.01 ± 0.012	0.996 ± 0.016
UniProt P78356	0.995 ± 0.034	1 ± 0.038
UniProt P62937 and related entries	1.05 ± 0.27	0.883 ± 0.14
ACY1 (UniProt Q03154)	1.05 ± 0.023	1 ± 0.055
MRPS25 (UniProt P82663)	0.991 ± 0.035	0.98 ± 0.026
UniProt P63167	1.01 ± 0.06	1.08 ± 0.058
EEFSEC (UniProt P57772)	0.987 ± 0.027	0.997 ± 0.025
COG7 (UniProt P83436)	1.01 ± 0.027	1 ± 0.026
UniProt P61129	1.02 ± 0.027	1.08 ± 0.046
MRPS9 (UniProt P82933)	1.02 ± 0.062	1.02 ± 0.074
SOX4 (UniProt Q06945)	0.983 ± 0.046	1.03 ± 0.039
UniProt Q05397 and related entries	1.02 ± 0.049	0.969 ± 0.018
